# Literature values in patent US5264556A, “Monoclonal antibodies for measuring okadaic acid” (priority 1992, dated 1993).
# The name of at least one read-out is uncertain.
# System: mice
# Details: injected intraperitoneally in mice; cited from earlier work
compound,measurement,value
C=C1[C@@H](O)[C@@H]2O[C@]3(CC[C@H](/C=C/[C@@H](C)[C@@H]4CC(C)=C[C@@]5(O[C@H](C[C@@](C)(O)C(=O)O)CC[C@H]5O)O4)O3)CC[C@H]2O[C@@H]1[C@@H](O)C[C@H](C)[C@H]1O[C@@]2(CCCCO2)CC[C@H]1C [okadaic acid],lethal potency,192 µg/kg
